± gives the standard deviation of the averaged measurements. Only a part is listed here, and it is no random draw.
Compound: Nc1ncnc2c1ncn2[C@@H]1O[C@H](COP(=O)(O)OP(=O)(O)NP(=O)(O)O)[C@@H](O)[C@H]1O [adenylyl imidodiphosphate]
Test: NP40-soluble protein abundance relative to vehicle (solubility fold change) (ratio); higher = more soluble protein in presence of AMP-PNP
Conditions: concentration: 2mM
Method in brief: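 Eight concentrations, 0.1 to 10 mM, were tested on Jurkat crude lysate for 10 min at room temperature and then 3 min at 37 °C, in three independent experiments. The lysate was solubilised with 0.8% NP40 and benzonase, ultracentrifuged, and the supernatant TMT-labelled for LC-MS/MS. Each value is the fold change against the detergent-processed vehicle in its own replicate, from vsn-normalised intensities.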

Chains of the proteins cited; added tags and fusions are not shown. Lines headed by an entry give the natural chain unless they say otherwise; changes in a name come on top.
UniProt Q96SZ5, whole entry: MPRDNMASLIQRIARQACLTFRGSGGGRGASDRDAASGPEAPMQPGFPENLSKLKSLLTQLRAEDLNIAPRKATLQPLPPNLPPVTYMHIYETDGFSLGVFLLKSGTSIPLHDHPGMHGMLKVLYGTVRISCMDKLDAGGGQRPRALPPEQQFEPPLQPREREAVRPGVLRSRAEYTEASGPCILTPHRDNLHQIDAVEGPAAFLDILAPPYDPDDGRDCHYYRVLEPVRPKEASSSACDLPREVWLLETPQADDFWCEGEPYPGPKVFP
UniProt Q9BRX8: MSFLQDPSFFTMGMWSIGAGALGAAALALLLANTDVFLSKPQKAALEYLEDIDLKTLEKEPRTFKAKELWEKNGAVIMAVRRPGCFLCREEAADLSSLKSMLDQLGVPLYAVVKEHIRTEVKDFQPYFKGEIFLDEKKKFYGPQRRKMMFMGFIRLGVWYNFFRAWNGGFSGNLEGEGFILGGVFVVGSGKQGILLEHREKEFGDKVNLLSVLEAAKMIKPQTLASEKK
UniProt Q9BUK6: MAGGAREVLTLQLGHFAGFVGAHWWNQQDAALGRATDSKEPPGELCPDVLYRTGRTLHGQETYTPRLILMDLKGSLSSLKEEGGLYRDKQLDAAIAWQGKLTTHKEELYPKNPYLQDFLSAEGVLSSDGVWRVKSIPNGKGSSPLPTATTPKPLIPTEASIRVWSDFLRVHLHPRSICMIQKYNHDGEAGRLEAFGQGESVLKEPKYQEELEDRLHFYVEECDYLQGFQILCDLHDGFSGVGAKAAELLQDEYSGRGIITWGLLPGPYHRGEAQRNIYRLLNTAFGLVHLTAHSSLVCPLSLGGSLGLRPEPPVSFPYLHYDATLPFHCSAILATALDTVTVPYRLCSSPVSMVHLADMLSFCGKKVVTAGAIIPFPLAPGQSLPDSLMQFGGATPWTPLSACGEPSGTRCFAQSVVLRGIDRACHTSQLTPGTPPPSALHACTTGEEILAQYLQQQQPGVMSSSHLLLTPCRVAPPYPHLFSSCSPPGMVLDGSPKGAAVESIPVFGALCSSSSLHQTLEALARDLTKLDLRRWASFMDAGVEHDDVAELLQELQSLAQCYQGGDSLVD
UniProt Q9BSD7: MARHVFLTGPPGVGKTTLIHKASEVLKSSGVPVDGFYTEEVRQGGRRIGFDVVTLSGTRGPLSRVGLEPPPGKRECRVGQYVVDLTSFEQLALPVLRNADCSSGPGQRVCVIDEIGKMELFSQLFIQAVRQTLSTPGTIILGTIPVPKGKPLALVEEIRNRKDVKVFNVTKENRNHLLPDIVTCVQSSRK
UniProt Q96TA2: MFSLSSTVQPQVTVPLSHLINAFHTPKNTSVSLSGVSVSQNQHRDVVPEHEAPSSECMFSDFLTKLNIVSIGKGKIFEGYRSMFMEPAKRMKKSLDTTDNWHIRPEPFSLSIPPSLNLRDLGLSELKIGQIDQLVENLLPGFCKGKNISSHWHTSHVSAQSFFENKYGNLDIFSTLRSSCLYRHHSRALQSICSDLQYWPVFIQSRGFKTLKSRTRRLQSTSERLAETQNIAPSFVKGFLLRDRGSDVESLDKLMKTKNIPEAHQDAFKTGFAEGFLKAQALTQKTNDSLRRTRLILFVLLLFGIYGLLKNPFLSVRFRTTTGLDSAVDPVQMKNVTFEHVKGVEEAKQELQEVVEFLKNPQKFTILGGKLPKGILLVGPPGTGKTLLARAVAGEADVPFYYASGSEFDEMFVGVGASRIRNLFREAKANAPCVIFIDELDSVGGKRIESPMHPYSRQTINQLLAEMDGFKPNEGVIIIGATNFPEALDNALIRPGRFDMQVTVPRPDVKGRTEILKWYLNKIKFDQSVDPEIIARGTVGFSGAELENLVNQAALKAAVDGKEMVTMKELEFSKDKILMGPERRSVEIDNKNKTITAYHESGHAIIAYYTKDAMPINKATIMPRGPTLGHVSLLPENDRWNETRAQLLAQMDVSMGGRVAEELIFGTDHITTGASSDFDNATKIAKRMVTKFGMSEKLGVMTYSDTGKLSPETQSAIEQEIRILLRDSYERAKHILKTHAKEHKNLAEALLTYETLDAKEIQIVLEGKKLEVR
UniProt Q9BVS4: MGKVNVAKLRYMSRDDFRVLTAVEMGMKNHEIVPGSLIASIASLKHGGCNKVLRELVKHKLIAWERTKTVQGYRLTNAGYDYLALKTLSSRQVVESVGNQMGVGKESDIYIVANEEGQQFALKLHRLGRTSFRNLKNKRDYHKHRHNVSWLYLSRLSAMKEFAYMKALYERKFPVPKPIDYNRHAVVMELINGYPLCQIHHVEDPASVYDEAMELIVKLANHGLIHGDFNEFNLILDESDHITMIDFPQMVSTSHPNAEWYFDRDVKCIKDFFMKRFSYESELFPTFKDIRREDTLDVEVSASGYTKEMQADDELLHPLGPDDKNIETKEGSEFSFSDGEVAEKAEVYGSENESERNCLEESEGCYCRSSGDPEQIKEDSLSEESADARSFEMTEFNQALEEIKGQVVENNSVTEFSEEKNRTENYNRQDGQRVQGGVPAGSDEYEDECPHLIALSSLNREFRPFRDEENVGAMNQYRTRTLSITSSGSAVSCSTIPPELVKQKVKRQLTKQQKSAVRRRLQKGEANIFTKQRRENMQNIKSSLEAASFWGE
UniProt Q9BXK1: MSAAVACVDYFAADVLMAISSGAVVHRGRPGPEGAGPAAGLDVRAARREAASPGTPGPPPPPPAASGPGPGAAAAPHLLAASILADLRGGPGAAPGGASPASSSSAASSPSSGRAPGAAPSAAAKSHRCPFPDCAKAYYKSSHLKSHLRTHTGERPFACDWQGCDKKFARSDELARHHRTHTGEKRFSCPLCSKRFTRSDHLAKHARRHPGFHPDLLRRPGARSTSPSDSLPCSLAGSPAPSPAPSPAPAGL
UniProt Q99766: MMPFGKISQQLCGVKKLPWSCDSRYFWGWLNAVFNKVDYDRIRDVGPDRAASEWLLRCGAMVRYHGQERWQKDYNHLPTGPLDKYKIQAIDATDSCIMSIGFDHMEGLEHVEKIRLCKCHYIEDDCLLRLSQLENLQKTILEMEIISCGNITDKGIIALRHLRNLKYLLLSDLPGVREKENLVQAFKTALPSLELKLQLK
UniProt Q99633: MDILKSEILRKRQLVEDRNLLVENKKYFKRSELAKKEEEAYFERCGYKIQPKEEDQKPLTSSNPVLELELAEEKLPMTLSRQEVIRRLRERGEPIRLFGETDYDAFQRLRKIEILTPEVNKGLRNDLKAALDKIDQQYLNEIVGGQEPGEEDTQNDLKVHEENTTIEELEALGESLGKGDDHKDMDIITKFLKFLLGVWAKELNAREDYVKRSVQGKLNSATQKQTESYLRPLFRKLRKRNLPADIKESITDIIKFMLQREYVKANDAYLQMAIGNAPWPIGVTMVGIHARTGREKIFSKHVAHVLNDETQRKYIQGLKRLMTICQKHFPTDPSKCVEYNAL
UniProt Q9BQA1, whole entry: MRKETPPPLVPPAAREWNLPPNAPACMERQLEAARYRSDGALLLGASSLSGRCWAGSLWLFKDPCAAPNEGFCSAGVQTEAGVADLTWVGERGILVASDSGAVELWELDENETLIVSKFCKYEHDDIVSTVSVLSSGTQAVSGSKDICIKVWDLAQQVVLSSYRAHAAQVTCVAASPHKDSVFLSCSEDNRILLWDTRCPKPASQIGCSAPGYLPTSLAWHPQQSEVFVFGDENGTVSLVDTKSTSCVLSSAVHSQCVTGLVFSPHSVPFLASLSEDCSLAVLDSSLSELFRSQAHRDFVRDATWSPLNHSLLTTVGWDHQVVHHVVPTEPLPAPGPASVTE
UniProt Q9BTU6: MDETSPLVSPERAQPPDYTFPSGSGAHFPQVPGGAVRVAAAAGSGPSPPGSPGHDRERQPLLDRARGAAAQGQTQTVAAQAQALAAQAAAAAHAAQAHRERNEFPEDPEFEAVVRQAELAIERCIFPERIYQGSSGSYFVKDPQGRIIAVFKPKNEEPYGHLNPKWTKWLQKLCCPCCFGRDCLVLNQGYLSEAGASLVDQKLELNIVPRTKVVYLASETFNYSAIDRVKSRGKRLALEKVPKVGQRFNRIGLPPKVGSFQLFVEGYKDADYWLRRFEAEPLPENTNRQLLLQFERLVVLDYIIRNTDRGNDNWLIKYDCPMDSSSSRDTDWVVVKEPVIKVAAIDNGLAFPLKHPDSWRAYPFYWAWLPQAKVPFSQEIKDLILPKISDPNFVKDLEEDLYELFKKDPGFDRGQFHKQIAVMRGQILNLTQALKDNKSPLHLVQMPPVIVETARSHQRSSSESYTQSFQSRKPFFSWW
UniProt Q96SK2: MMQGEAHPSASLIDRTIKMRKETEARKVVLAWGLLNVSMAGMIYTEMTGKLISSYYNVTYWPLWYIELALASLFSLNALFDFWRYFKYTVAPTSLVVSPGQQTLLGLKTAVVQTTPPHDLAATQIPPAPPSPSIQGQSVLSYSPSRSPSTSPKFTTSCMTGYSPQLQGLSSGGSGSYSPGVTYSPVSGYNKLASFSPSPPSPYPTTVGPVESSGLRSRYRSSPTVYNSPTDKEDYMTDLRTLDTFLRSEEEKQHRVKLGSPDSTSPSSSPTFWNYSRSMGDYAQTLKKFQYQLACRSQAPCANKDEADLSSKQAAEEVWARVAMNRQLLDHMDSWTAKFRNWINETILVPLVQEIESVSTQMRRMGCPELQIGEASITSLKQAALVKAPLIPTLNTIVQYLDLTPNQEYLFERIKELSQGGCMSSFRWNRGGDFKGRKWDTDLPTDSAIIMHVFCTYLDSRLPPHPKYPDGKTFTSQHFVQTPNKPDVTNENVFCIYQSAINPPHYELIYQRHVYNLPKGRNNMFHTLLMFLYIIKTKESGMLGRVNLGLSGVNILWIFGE
UniProt Q99767, whole entry: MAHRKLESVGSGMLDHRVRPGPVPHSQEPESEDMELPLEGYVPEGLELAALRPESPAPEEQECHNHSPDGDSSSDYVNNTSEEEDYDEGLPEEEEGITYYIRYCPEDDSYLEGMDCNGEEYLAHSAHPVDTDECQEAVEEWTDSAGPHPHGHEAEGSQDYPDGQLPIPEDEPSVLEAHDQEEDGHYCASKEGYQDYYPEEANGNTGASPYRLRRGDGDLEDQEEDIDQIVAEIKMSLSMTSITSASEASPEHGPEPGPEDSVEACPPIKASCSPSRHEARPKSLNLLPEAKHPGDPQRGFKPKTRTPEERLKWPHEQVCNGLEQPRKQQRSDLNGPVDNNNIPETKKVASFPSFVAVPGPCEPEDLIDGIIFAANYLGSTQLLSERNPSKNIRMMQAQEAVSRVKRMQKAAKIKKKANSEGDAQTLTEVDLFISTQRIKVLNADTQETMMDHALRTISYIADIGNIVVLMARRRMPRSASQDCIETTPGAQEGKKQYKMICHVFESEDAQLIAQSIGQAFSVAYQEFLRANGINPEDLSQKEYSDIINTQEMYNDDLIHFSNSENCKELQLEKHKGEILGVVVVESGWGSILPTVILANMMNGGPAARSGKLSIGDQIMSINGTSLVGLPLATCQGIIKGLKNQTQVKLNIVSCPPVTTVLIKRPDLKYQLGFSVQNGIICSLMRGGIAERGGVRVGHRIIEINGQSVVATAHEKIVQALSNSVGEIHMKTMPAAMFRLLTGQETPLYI
UniProt Q99719: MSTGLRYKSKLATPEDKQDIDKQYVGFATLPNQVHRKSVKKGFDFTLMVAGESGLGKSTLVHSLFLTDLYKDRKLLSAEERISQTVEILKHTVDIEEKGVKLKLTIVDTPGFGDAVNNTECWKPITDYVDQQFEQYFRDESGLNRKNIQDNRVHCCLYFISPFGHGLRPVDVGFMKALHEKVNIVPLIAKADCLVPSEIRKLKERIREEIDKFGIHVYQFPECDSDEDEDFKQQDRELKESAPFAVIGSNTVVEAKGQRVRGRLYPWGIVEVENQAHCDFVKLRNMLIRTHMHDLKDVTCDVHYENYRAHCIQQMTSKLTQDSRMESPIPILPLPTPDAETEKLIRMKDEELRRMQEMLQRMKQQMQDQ
UniProt Q9BV20: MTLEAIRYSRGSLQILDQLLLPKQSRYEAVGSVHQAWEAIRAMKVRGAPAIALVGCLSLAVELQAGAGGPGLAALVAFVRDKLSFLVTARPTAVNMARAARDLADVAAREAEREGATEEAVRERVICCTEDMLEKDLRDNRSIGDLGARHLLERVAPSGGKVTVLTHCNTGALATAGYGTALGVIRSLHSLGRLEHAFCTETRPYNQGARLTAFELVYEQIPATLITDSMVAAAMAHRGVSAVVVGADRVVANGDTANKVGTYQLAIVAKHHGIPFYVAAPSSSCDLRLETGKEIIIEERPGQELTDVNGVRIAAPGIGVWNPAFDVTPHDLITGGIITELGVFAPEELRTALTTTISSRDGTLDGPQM
UniProt Q9BX68: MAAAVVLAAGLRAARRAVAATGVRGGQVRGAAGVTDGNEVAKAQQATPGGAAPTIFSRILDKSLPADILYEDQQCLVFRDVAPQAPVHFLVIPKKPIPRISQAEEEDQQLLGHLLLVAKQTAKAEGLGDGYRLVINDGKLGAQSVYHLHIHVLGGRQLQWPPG
UniProt Q9BTE1, whole entry: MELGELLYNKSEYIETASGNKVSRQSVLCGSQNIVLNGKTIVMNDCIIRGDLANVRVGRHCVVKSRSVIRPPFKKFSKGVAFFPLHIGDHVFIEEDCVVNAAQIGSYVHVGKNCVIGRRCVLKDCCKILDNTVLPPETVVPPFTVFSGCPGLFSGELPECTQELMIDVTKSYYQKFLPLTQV

Target	NP40-soluble protein abundance
ADO (UniProt Q96SZ5)	1.04 ± 0.045
UniProt Q9BRX8 and related entries	0.943 ± 0.067
UniProt Q9BUK6 and related entries	0.959 ± 0.031
UniProt Q9BSD7	1.11 ± 0.12
UniProt Q96TA2 and related entries	0.952 ± 0.1
UniProt Q9BVS4 and related entries	1.04 ± 0.031
KLF16 (UniProt Q9BXK1)	1.002 ± 0.0092
UniProt Q99766	0.959 ± 0.024
PRPF18 (UniProt Q99633)	1.05 ± 0.014
UniProt Q96ST2 and related entries	1.04 ± 0.072
TBCB (UniProt Q99426)	0.963 ± 0.014
UBAC1 (UniProt Q9BSL1)	1.01 ± 0.011
WDR77 (UniProt Q9BQA1)	0.961 ± 0.056
PI4K2A (UniProt Q9BTU6)	0.965 ± 0.069
UniProt Q96SK2 and related entries	1.02 ± 0.049
UniProt Q99767-2|Q99767	1.01 ± 0.029
UniProt Q99719 and related entries	1.01 ± 0.036
MRI1 (UniProt Q9BV20)	1.02 ± 0.035
MRPL32 (UniProt Q9BYC8)	1.01 ± 0.014
HINT2 (UniProt Q9BX68)	1.002 ± 0.0042
UniProt Q9BRR9-2|Q9BRR9-4|Q9BRR9-5|R4GN15	0.943 ± 0.026
DCTN5 (UniProt Q9BTE1)	0.948 ± 0.04

Same assay, conditions: concentration: 4mM

Target	NP40-soluble protein abundance
UniProt Q9BSH4	1.02 ± 0.053
UniProt Q9BPY3 and related entries	1.015 ± 0.0099
UniProt Q9BTY7	0.97 ± 0.041
NUP85 (UniProt Q9BW27)	0.959 ± 0.013
UniProt Q96RU2-2	0.9614 ± 0.0074
UniProt Q9BUB5 and related entries	1.08 ± 0.011
SMC6 (UniProt Q96SB8)	1.01 ± 0.031
SDF2 (UniProt Q99470)	0.946 ± 0.083
CDC5L (UniProt Q99459)	1.08 ± 0.031
GPATCH1 (UniProt Q9BRR8)	1.06 ± 0.037
UniProt Q96RS0 and related entries	1 ± 0.022
ACBD6 (UniProt Q9BR61)	1.03 ± 0.021
UniProt Q9BTT0 and related entries	0.964 ± 0.046
UniProt Q9BTD8 and related entries	1.1 ± 0.045
UniProt Q9BXS6 and related entries	0.962 ± 0.055
TSNAX (UniProt Q99598)	0.985 ± 0.035
ADO (UniProt Q96SZ5)	1.05 ± 0.029
UniProt Q9BRX8 and related entries	0.997 ± 0.017
UniProt Q9BUK6 and related entries	0.993 ± 0.038

Target	NP40-soluble protein abundance
UniProt Q9BSD7	1.15 ± 0.063
UniProt Q96TA2 and related entries	0.98 ± 0.032
UniProt Q9BVS4 and related entries	1 ± 0.032
KLF16 (UniProt Q9BXK1)	1.02 ± 0.045
UniProt Q99766	0.99 ± 0.044
PRPF18 (UniProt Q99633)	1.06 ± 0.04
UniProt Q96ST2 and related entries	1 ± 0.024
TBCB (UniProt Q99426)	0.972 ± 0.035
UBAC1 (UniProt Q9BSL1)	0.998 ± 0.028
WDR77 (UniProt Q9BQA1)	0.987 ± 0.015
PI4K2A (UniProt Q9BTU6)	1.02 ± 0.023
UniProt Q96SK2 and related entries	1.02 ± 0.046
UniProt Q99767-2|Q99767	1 ± 0.082
UniProt Q99719 and related entries	1.06 ± 0.046
MRI1 (UniProt Q9BV20)	0.9968 ± 0.0072
MRPL32 (UniProt Q9BYC8)	0.9547 ± 0.0081
HINT2 (UniProt Q9BX68)	0.978 ± 0.019
UniProt Q9BRR9-2|Q9BRR9-4|Q9BRR9-5|R4GN15	0.976 ± 0.028
DCTN5 (UniProt Q9BTE1)	0.972 ± 0.048

Same assay, conditions: concentration: 6mM

Target	NP40-soluble protein abundance
UniProt Q9BSH4	1.09 ± 0.079
UniProt Q9BPY3 and related entries	0.977 ± 0.024
UniProt Q9BTY7	0.915 ± 0.04
NUP85 (UniProt Q9BW27)	0.949 ± 0.038
UniProt Q96RU2-2	0.956 ± 0.007
UniProt Q9BUB5 and related entries	1.04 ± 0.047
SMC6 (UniProt Q96SB8)	1 ± 0.046
SDF2 (UniProt Q99470)	0.931 ± 0.057
CDC5L (UniProt Q99459)	1.12 ± 0.073
GPATCH1 (UniProt Q9BRR8)	1.04 ± 0.047
UniProt Q96RS0 and related entries	1 ± 0.028
ACBD6 (UniProt Q9BR61)	0.995 ± 0.051
UniProt Q9BTT0 and related entries	0.9461 ± 0.004
UniProt Q9BTD8 and related entries	1.17 ± 0.024
UniProt Q9BXS6 and related entries	1 ± 0.047
TSNAX (UniProt Q99598)	1.03 ± 0.057
ADO (UniProt Q96SZ5)	1.04 ± 0.022
UniProt Q9BRX8 and related entries	0.966 ± 0.025
UniProt Q9BUK6 and related entries	0.995 ± 0.038

Target	NP40-soluble protein abundance
UniProt Q9BSD7	1.2 ± 0.05
UniProt Q96TA2 and related entries	0.973 ± 0.038
UniProt Q9BVS4 and related entries	0.9674 ± 0.0025
KLF16 (UniProt Q9BXK1)	1 ± 0.054
UniProt Q99766	0.967 ± 0.03
PRPF18 (UniProt Q99633)	1.05 ± 0.044
UniProt Q96ST2 and related entries	1.06 ± 0.035
TBCB (UniProt Q99426)	1.03 ± 0.066
UBAC1 (UniProt Q9BSL1)	0.955 ± 0.015
WDR77 (UniProt Q9BQA1)	0.981 ± 0.012
PI4K2A (UniProt Q9BTU6)	0.965 ± 0.022
UniProt Q96SK2 and related entries	1.05 ± 0.048
UniProt Q99767-2|Q99767	0.9979 ± 0.0037
UniProt Q99719 and related entries	1.04 ± 0.036
MRI1 (UniProt Q9BV20)	0.98 ± 0.016
MRPL32 (UniProt Q9BYC8)	0.952 ± 0.036
HINT2 (UniProt Q9BX68)	0.988 ± 0.013
UniProt Q9BRR9-2|Q9BRR9-4|Q9BRR9-5|R4GN15	0.993 ± 0.023
DCTN5 (UniProt Q9BTE1)	0.9842 ± 0.0041

Source: the supplement of paper PMC6411743
